{"source": "PubChem BioAssay AID1259272 – Sanger Institute, 2017", "test": "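Kinome-wide siRNA search for genes whose silencing boosts targeted drug effects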 (primary screen)", "system": "SW1116 human colorectal cancer cells", "knock-down reagent": "siRNA pool against human genes", "treatment": "anchor drugs BYL719 (1 µM), cetuximab (5 µg/ml) or trametinib (10 nM), or DMSO vehicle; exposure length not given", "read-out": "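Cell survival as a fraction of wells given a non-targeting pool, averaged over replicates; robust z-score without drug; synergy score for each of BYL719, cetuximab and trametinib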", "direction": "viability z-score, no drug: higher = more cells remaining; strongly negative means essential gene; viability, no drug: higher = more viable cells", "active means": "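Called essential if the drug-free knock-down gives a robust viability z-score below -3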", "meaning of the calls": "active = essential (knock-down alone); inactive = no change", "note": "Shown is one part, drawn at random, of 794 reagents tested. 7 of them (0.88%) were called active. 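Essential calls reflect knock-down without drug only, not synergy with drugs; drug exposure length not given.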 Unmarked entries are inactive. No viability above 1 is reported: the scale is capped. Not all columns of the deposit are shown. Not stated in the record: the amount of reagent, the time to read-out."}
{"gene symbol": "PKLR (pyruvate kinase L/R)", "viability z-score, no drug": 0.582, "viability, no drug (fraction of control)": 0.972}
{"gene symbol": "THNSL1 (threonine synthase like 1)", "viability z-score, no drug": 0.842, "viability, no drug (fraction of control)": 1}
{"gene symbol": "BRDT (bromodomain testis associated)", "viability z-score, no drug": 0.842, "viability, no drug (fraction of control)": 1}
{"gene symbol": "FES (FES proto-oncogene, tyrosine kinase)", "viability z-score, no drug": -1.76, "viability, no drug (fraction of control)": 0.722}
{"gene symbol": "TTBK1 (tau tubulin kinase 1)", "viability z-score, no drug": 0.267, "viability, no drug (fraction of control)": 0.939}
{"gene symbol": "PRKCI (protein kinase C iota)", "viability z-score, no drug": 0.842, "viability, no drug (fraction of control)": 1}
{"gene symbol": "CHD4 (chromodomain helicase DNA binding protein 4)", "viability z-score, no drug": -0.727, "viability, no drug (fraction of control)": 0.833}
{"gene symbol": "TYRO3 (TYRO3 protein tyrosine kinase)", "viability z-score, no drug": -0.774, "viability, no drug (fraction of control)": 0.828}
{"gene symbol": "ADCK5 (aarF domain containing kinase 5)", "viability z-score, no drug": 0.842, "viability, no drug (fraction of control)": 1}
{"gene symbol": "ERBB3 (erb-b2 receptor tyrosine kinase 3)", "viability z-score, no drug": 0.842, "viability, no drug (fraction of control)": 1}
{"gene symbol": "STK11 (serine/threonine kinase 11)", "viability z-score, no drug": -0.438, "viability, no drug (fraction of control)": 0.864}
{"gene symbol": "MLKL (mixed lineage kinase domain like pseudokinase)", "viability z-score, no drug": 0.76, "viability, no drug (fraction of control)": 0.991}
{"gene symbol": "PIK3R5 (phosphoinositide-3-kinase regulatory subunit 5)", "viability z-score, no drug": 0.0421, "viability, no drug (fraction of control)": 0.915}

2 of these entries in another layout.
THNSL1 (threonine synthase like 1) | viability z-score, no drug: 0.842; viability, no drug (fraction of control): 1
BRDT (bromodomain testis associated) | viability z-score, no drug: 0.842; viability, no drug (fraction of control): 1
